Measurements taken from PubChem BioAssay AID1487 (National Center for Advancing Translational Sciences (NCATS), 2009).
In all, about 200,000 compounds went through this assay and about 25 (0.01%) were called active. Inconclusive results, whose numbers are uncertain, are shown with a selection of clear calls. Calls follow the shape of the dose curve; as a rule, active = well fitted inhibition curve with a large enough effect in the signal ratio, with a control signal flat (not every such curve was filed as active); inconclusive = small, poorly fitted or top-dose-only effect, or effect the other way, or a change in a side signal; inactive = flat fitted curve, though single readings scatter; the % refers to the signal ratio. Where the call is inconclusive, the potency comes from a doubtful curve fit.
% is scaled to controls: 0 for no effect and ±100 for the full control effect; potency is read from the fitted curve at half-maximal effect.

Test: qHTS Assay for Modulators of Lamin A Splicing
Settings: HeLa LMNA splicing GFP/RFP minigene ratio, 48 h; ratio change, negative = inhibition: at 46.1 µM (top of the series) unless noted
Excerpt: NCGC Assay Overview: Hutchinson-Gilford Progeria Syndrome (HGPS) is a pediatric premature aging disease caused by a spontaneous mutation in the lamin A/C (LMNA) gene. The mutation activates a cryptic splice site in the LMNA pre-mRNA which results in production of a pre-lamin A protein that cannot be processed properly. The mutant protein accumulates in the nucleus and negatively affects numerous cellular functions. Correction of the splicing defect in HGPS patient cells using a targeted oligonucleotide (exo11) leads to reversal of the cellular disease phenotypes. To identify small molecule modulators of aberrant LMNA splicing, a homogenous assay was constructed in HeLa cells that used a GFP containing minigene to report on correction of aberrant splicing in lamin A and a RFP (DsRed2) to report on cell viability, uniformity and nonspecific effects on the assay signal. This assay was adapted to laser-scanning microplate cytometry (Acumen, TTP Labtech) where miniaturization of the assay to a 1,536-well plate format was possible. References: Bowen, W. P.; Wylie, P. G. Application of Laser-Scanning Fluorescence Microplate Cytometry in High Content Screening. Assay Drug Dev Technol 2006;4:209-221. Scaffidi P, Misteli T. Reversal of the cellular phenotype in the premature aging disease Hutchinson-Gilford progeria syndrome. Nat.
NCGC Assay Protocol Summary: Reagents/Controls: Stable clones expressing DsRed2 and lamin A-EGFP were generated by Cell and Molecular Technologies in S3 HeLa cells. HeLa cells were prepared for the assay when they were 70-90% confluent. The cells were counted and resuspended in Opti-MEM I (no phenol red; Gibco), 2% FBS, 1% penicillin/ streptomycin (Gibco) at concentration of 120 cells/uL concentration. The suspension was passed through a Falcon basket filter with pore size 40um (Beckton Dickson). Control titrations: column […] 1536-well plate contained a sixteen point titration (1:2 dilutions) in duplicate of ancitabine (Sigma: A8598) beginning at 40 uM final concentration. Column 2 contained a sixteen point titration (1:2 dilutions) of cycloheximide beginning at 1.4 mM final concentration. Column 3 contained ancitabine at 40 uM and column 4 contained was the vehicle control (0.5% DMSO final concentration). Assay Steps: 5 uL of HeLa cells were plated in Aurora LoBase black clear bottom (cyclic-olefin polymer) 1536-well plates at a final density of 600 cells/well. Controls and library compounds were added with a 1536-well pin array using the Kalypsys pin-tool. The plates were then incubated for 48 hrs in a cell-culture incubator (37 °C; 5% CO2, 98% humidity). Following incubation the plates were read on the Acumen Explorer using the 488 nm laser. Data was collected on objects between 10 and 100 um in size. Cell objects were defined by a 15 um width x 10 um depth filter. The ratio of the total object intensity in PMT1 (500-530 nm emission; GFP) over PMT3 (575-640 nm emission; RFP) was calculated for analysis. Keywords: NIH Roadmap, MLSCN, MLI, MLSMR, qHTS, NCGC, lamin A, Progeria, RNA splicing.
For `Cn1c(=O)[nH]c(=O)c2c1nc(SCC(=O)O)n2CCc1ccccc1`, the “ratio change, negative = inhibition” value was inactive: -1.86%. For `Cc1[nH]c2ccccc2c1CCN(Cc1cccnc1)C(=S)Nc1cccc(F)c1`, the ratio change, negative = inhibition was inconclusive: 3.86% [at 9.22 µM]. With `COc1ccc(N2CCN(C(=O)c3cccnc3)CC2)c([N+](=O)[O-])c1` the ratio change, negative = inhibition was inconclusive: 15.3% [at 46 µM]. With `N#Cc1ccc(Cl)cc1NC(=O)COC(=O)[C@H](CCC(N)=O)NC(=O)c1ccc(F)cc1` the “ratio change, negative = inhibition” value was inactive: -7.17%. With `CCN(CC)c1ccc(S(=O)(=O)N(CC)CC)cc1NC(=O)c1cccnc1` the ratio change, negative = inhibition was inconclusive: -23.4% [at 46 µM]. With `CC(C)C(C)(C#N)NC(=O)CSc1ncnc2sc(-c3ccccc3)cc12` (stereo unspecified) the Potency was inconclusive: 20 µM [falling, single point]. For `O=C(CC(=O)Nc1ccccn1)Nc1ccccn1`, the “ratio change, negative = inhibition” value was inactive: 2.18%. In the case of `C=CCc1cccc2cc(-c3nc4ccc(C(=O)O)cc4[nH]3)c(=O)oc12`, the ratio change, negative = inhibition is reported as inconclusive: 21.5% [at 46 µM]. In the case of `CCOC(=O)C(Oc1ccc(=O)n(-c2ccccc2)n1)C(C)=O` (stereo unspecified), the “ratio change, negative = inhibition” value is reported as inactive: -1.11%. For `CCOC(=O)CCCCN(Cc1ccccc1F)S(=O)(=O)c1ccc(F)c(C(=O)Nc2cc(Cl)cc(Cl)c2)c1`, the “ratio change, negative = inhibition” value was inactive: -21.1% [at 46 µM]. With `Cc1ccc(S(=O)(=O)Nc2ccccc2CNc2ncc(Br)cc2Br)cc1` the ratio change, negative = inhibition was inconclusive: -49%. In the case of `CCOc1ccc(CNC(=O)CN2N=C(c3ccccc3)CCC2=O)cc1OC`, the ratio change, negative = inhibition is reported as inconclusive: 7.64% [at 46 µM]. With `O=C(NC(NC(=S)Nc1ccccc1Cl)C(Cl)(Cl)Cl)c1cccc(Cl)c1` (stereo unspecified) the Potency was inconclusive: 25.1 µM [inhibitor, single point]. With `COc1ccc(OC)c(-c2nc3c(C)n[nH]c(=O)c3[nH]2)c1` the ratio change, negative = inhibition was inconclusive: 39.3%. With `C[C@@H](C(=O)Nc1nc(-c2ccccn2)cs1)N1C(=O)C2CCCCC2C1=O` (stereo partly specified) the “ratio change, negative = inhibition” value was inactive: -17.9%. With `CCOc1ccc(S(=O)(=O)Nc2cc(Cl)ccc2O)cc1` the Potency was inconclusive: 20 µM [inhibitor, partial curve, poor fit]. In the case of `CCOc1ccc(C2C(C#N)=C(C)NC3=C2C(=O)c2ccccc23)cc1` (stereo unspecified), the Potency is reported as inconclusive: 35.5 µM [falling, single point]. For `CCN(CC)C(=O)NC1CCCCCCC1`, the ratio change, negative = inhibition was inconclusive: 13.7% [at 46 µM]. In the case of `COc1ccc(-c2c(C)[nH]n3c(=O)c(Cc4ccccc4)c(C)nc23)cc1OC`, the Potency is reported as inconclusive: 35.5 µM [falling, single point]. With `COc1cccc([C@@H]2Oc3ccc(Br)cc3C(=O)[C@H]2OC(=O)NC2CCCC2)c1` the Potency was inconclusive: 25.1 µM [falling, single point]. For `Cc1cc(C)c(-c2cc(NC(=O)CSc3n[nH]c(N)n3)n(-c3ccccc3)n2)cc1C`, the “ratio change, negative = inhibition” value was inactive: -0.451%. With `CC(C)OC(=O)NCCOC(=O)Nc1ccc(Cl)c(Cl)c1` the Potency was inconclusive: 35.5 µM [fluorescent, single point]. In the case of `CCc1cc(=O)[nH]c(SCc2nc(-c3cccc(Cl)c3)no2)n1`, the ratio change, negative = inhibition is reported as inconclusive: -15.6% [at 46 µM]. In the case of `Cc1ccc(Cl)cc1N1CCN(S(=O)(=O)c2ccc3c(c2)C(C(C)C)C(=O)N3)CC1` (stereo unspecified), the ratio change, negative = inhibition is reported as inconclusive: -4.3% [at 46 µM]. In the case of `Oc1ccc(N2CCN(C(c3cccs3)c3nnnn3CCc3ccccc3)CC2)cc1` (stereo unspecified), the ratio change, negative = inhibition is reported as inconclusive: -42%. With `COC(=O)c1ccc(C2C(C#N)=C(N)Oc3cc(C)n(C)c(=O)c32)cc1` (stereo unspecified) the “ratio change, negative = inhibition” value was inactive: 2.85%. For `Cc1cc(C)c(S(=O)(=O)n2ccc3ccccc32)c(C)c1`, the “ratio change, negative = inhibition” value was inactive: 3.25%. For `C=CCN1C2CCCC1CC(NC(=S)Nc1ccc(Cl)cc1)C2` (stereo unspecified), the Potency was inconclusive: 17.8 µM [inhibitor, partial curve]. With `CCOc1ccc(NC(=O)CS(=O)(=O)c2cn(CC)c3ccccc23)cc1` the ratio change, negative = inhibition was inconclusive: -7.57%. For `COc1ccc(C2C3CCCCC3(O)CCN2C(=O)c2cccs2)cc1` (stereo unspecified), the ratio change, negative = inhibition was inconclusive: -1.16%. In the case of `CCc1ccccc1Nc1ncnc2c1cnn2-c1ccc(C)cc1C`, the ratio change, negative = inhibition is reported as inconclusive: -21.6% [at 46 µM]. In the case of `Cc1ccc(CNc2ccc(N3C(=O)CC(C)C3=O)cc2[N+](=O)[O-])cc1` (stereo unspecified), the ratio change, negative = inhibition is reported as inconclusive: -25.2%. With `Cc1ccc(O)c(N=Cc2cc(Cc3ccccc3)cc([N+](=O)[O-])c2O)c1` the Potency was inconclusive: 3.16 µM [inhibitor, partial curve]. With `CCOC(=O)c1sc(=S)n(C)c1NC(=O)c1ccccc1C` the “ratio change, negative = inhibition” value was inactive: 7.96%. In the case of `COc1ccccc1N(CC(=O)NCc1ccc(F)cc1)C(=O)CCC(=O)Nc1ccccn1`, the ratio change, negative = inhibition is reported as inconclusive: 2% [at 46 µM]. With `Cc1cccc(OCC(=O)Nc2cccc(C(=O)Nc3ccccc3C(=O)O)c2)c1` the “ratio change, negative = inhibition” value was inactive: -6.34%. In the case of `O=C(COc1ccc(Cl)cc1)NCC(c1ccco1)S(=O)(=O)c1ccc(Cl)cc1` (stereo unspecified), the ratio change, negative = inhibition is reported as inconclusive: 11.7% [at 46 µM]. In the case of `O=[N+]([O-])c1ccc(/C=N/n2cnc3ccccc32)s1`, the ratio change, negative = inhibition is reported as inconclusive: 210%. For `O=C(Nc1ccc(SC(F)F)cc1)c1ccccc1F`, the ratio change, negative = inhibition was inconclusive: 2.42% [at 46 µM]. In the case of `O=C(c1ccc2c(c1)OCO2)N(Cc1cccs1)C1(C(=O)NC2CCCCC2)CCCCC1`, the ratio change, negative = inhibition is reported as inconclusive: -1.19%. In the case of `CC(C)CC(COCc1ccc([N+](=O)[O-])cc1)N1CCN(C(=O)c2ccc(C(F)(F)F)cc2)CCC1=O` (stereo unspecified), the ratio change, negative = inhibition is reported as inconclusive: -31.2%.
